Data as given in PubChem BioAssay AID493246 (Drosophila RNAi Screening Center, 2011)
Purpose: 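Genome-wide search for dsRNAs that reduce cell number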 (primary screen). System: Drosophila Kc and S2R+ cells. Reagents: long dsRNA against Drosophila genes. Measurement: 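Cell number per well after knock-down, printed as raw plate values; calls were based on per-plate z-scores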. Scale: Kc cell number and S2R+ cell number: higher = more cells remaining. Active means: 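Active when the per-plate z-score of cell number is 3 or more in the direction of fewer cells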.
In all, the deposit lists about 21,000 reagents; below is an unselected part of those that have a named target and a result. In the full data, 429 (2%) were called active. 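Values are raw and not normalised between plates; calls rest on per-plate z-scores that were not deposited.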 Unmarked entries are inactive. Names joined by + are all predicted targets of the reagent. No sequences are given here. Not stated in the record: the amount of reagent, the time to read-out.

The first 7 records, to show the layout:
Gene,amplicon,"Kc cell number, rep 1","Kc cell number, rep 2","S2R+ cell number, rep 1","S2R+ cell number, rep 2"
CG34217,DRSC05083,1.46e6,1.54e6,9.74e5,1.06e6
papi,DRSC00693,1.01e6,1.28e6,4.72e5,5.27e5
Kr-h2,DRSC03356,1.53e6,1.49e6,1.20e6,1.37e6
CG14036,DRSC02361,1.57e6,1.48e6,1.15e6,1.36e6
PDZ-GEF,DRSC03231,1.68e6,1.57e6,1.23e6,1.29e6
stv,DRSC09796,1.65e6,1.74e6,1.13e6,1.26e6
stv,DRSC10111,1.47e6,1.81e6,1.27e6,1.27e6

Main list, from the first entry:
Gene,amplicon,"Kc cell number, rep 1","Kc cell number, rep 2","S2R+ cell number, rep 1","S2R+ cell number, rep 2"
CG34217,DRSC05083,1.46e6,1.54e6,9.74e5,1.06e6
papi,DRSC00693,1.01e6,1.28e6,4.72e5,5.27e5
Kr-h2,DRSC03356,1.53e6,1.49e6,1.20e6,1.37e6
CG14036,DRSC02361,1.57e6,1.48e6,1.15e6,1.36e6
PDZ-GEF,DRSC03231,1.68e6,1.57e6,1.23e6,1.29e6
stv,DRSC09796,1.65e6,1.74e6,1.13e6,1.26e6
stv,DRSC10111,1.47e6,1.81e6,1.27e6,1.27e6
CG3502 + CG9863,DRSC04578,1.54e6,1.63e6,1.23e6,1.35e6
snoRNA:Me28S-C3420b + RpS11,DRSC07396,1.62e6,1.66e6,1.20e6,1.35e6
GluRIIB,DRSC03335,1.52e6,1.45e6,1.10e6,1.19e6
CG11808,DRSC06088,1.27e6,1.44e6,8.92e5,9.34e5
wek,DRSC03561,1.38e6,1.38e6,1.28e6,1.32e6
ATPsynC,DRSC15236,4.49e5,,6.53e5,
ND-B22,DRSC03193,1.39e6,1.46e6,1.05e6,1.16e6
Obp99a,DRSC15303,1.40e6,1.45e6,8.06e5,8.81e5
CG6083,DRSC10580,1.31e6,1.46e6,1.19e6,1.26e6
CG17349,DRSC02610,1.68e6,1.77e6,1.24e6,2.77e5
CG31178,DRSC14590,1.39e6,1.38e6,1.14e6,1.28e6
CG45263,DRSC12682,1.44e6,1.56e6,1.04e6,1.27e6
CG45263,DRSC14360,1.53e6,1.63e6,1.25e6,1.38e6
CG45263,DRSC14361,1.45e6,1.51e6,1.32e6,1.41e6
CG45263,DRSC14363,1.55e6,1.65e6,1.22e6,1.33e6
CG5342,DRSC15776,1.53e6,1.59e6,1.28e6,1.32e6
caup,DRSC11334,1.51e6,1.48e6,8.61e5,9.85e5
mAcon2,DRSC15629,1.63e6,1.62e6,1.23e6,1.35e6
wun,DRSC07719,1.37e6,1.42e6,1.03e6,1.09e6
CG42535,DRSC09041,1.34e6,1.47e6,1.13e6,1.26e6
kumpel,DRSC14883,1.45e6,1.55e6,1.02e6,1.10e6
kumpel,DRSC16459,1.54e6,1.70e6,1.04e6,1.11e6
kumpel,DRSC16460,1.52e6,1.73e6,1.05e6,1.14e6
kumpel,DRSC16461,1.80e6,1.70e6,1.03e6,1.13e6
kumpel,DRSC16462,1.67e6,1.63e6,1.00e6,1.17e6
kumpel,DRSC16463,1.50e6,1.53e6,1.01e6,1.13e6
CG10953,DRSC06021,1.48e6,1.56e6,1.16e6,1.19e6
Abd-B,DRSC14098,1.43e6,1.43e6,1.05e6,1.19e6
Abd-B,DRSC14337,1.29e6,1.27e6,1.07e6,1.20e6
CG3770,DRSC04416,1.28e6,1.33e6,9.62e5,9.69e5
Hsp70Bb + Hsp70Ba + Hsp70Bc + 1 more,DRSC21247,1.46e6,1.46e6,7.50e5,8.35e5
Hsp70Bb + Hsp70Ba + Hsp70Bc + 1 more,DRSC21248,1.45e6,1.42e6,7.27e5,8.28e5
Scamp,DRSC20286,1.64e6,1.62e6,1.01e6,1.14e6
tud,DRSC04719,1.44e6,1.45e6,1.27e6,3.03e5
Fer3HCH,DRSC19892,1.55e6,1.50e6,1.08e6,1.13e6
CG4045,DRSC18518,5.51e5,,8.06e5,
Eb1,DRSC05016,1.62e6,1.62e6,1.34e6,1.22e6
ND-B12,DRSC04060,1.36e6,1.46e6,1.18e6,3.45e5
Dhc16F,DRSC20242,1.41e6,1.48e6,1.06e6,1.15e6
Slh,DRSC00789,1.41e6,1.50e6,9.14e5,1.09e6
gus,DRSC04885,1.41e6,1.49e6,1.20e6,1.11e6
gus,DRSC04886,1.19e6,1.37e6,1.04e6,1.06e6
DnaJ-H,DRSC03273,1.65e6,1.71e6,1.38e6,1.53e6
Tpst,DRSC18989,1.52e6,1.67e6,1.06e6,1.15e6
Tpst,DRSC19696,1.95e6,1.76e6,1.22e6,1.35e6
Tpst,DRSC19723,1.76e6,1.64e6,1.07e6,1.23e6
Tpst,DRSC19724,9.00e5 (active),8.45e5,8.21e5,8.67e5
CG8135 + BBIP1,DRSC12739,1.25e6,1.37e6,9.43e5,1.11e6
CG8135 + BBIP1,DRSC16384,1.64e6,1.57e6,1.25e6,1.33e6
FMRFaR,DRSC08555,1.24e6,1.36e6,1.11e6,1.28e6
CG34288,DRSC13564,1.76e6,1.73e6,1.17e6,1.17e6
CG5986,DRSC15931,1.64e6,1.75e6,1.15e6,1.20e6
